At least one compound was matched to its structure with a doubt left.
Test: Drug recovery of PX 867 at 33 percent loading of coating (drug elution study, Sotax 4 device)
Assay type: physicochemical
Conditions: after loading into the polymeric coating and processing

Compound: COC[C@H]1OC(=O)/C(=C\N2CCCC2)C2=C(O)C(=O)C3=C([C@H](OC(C)=O)C[C@]4(C)C(=O)CC[C@@H]34)[C@]21C [PX867]
- percent recovery: greater than eighty
